Assay results from the supplement of paper PMC12067093, “Discovery and optimisation of a covalent ligand for TRIM25 and its application to targeted protein ubiquitination” (Chemical Science, 2025).
The list shows a part of the results.

The chains behind the UniProt entries cited, without tags or fusion partners. Where a name states a change or a piece, a line headed by the entry shows the natural chain unless it says otherwise.
UniProt Q68CZ2: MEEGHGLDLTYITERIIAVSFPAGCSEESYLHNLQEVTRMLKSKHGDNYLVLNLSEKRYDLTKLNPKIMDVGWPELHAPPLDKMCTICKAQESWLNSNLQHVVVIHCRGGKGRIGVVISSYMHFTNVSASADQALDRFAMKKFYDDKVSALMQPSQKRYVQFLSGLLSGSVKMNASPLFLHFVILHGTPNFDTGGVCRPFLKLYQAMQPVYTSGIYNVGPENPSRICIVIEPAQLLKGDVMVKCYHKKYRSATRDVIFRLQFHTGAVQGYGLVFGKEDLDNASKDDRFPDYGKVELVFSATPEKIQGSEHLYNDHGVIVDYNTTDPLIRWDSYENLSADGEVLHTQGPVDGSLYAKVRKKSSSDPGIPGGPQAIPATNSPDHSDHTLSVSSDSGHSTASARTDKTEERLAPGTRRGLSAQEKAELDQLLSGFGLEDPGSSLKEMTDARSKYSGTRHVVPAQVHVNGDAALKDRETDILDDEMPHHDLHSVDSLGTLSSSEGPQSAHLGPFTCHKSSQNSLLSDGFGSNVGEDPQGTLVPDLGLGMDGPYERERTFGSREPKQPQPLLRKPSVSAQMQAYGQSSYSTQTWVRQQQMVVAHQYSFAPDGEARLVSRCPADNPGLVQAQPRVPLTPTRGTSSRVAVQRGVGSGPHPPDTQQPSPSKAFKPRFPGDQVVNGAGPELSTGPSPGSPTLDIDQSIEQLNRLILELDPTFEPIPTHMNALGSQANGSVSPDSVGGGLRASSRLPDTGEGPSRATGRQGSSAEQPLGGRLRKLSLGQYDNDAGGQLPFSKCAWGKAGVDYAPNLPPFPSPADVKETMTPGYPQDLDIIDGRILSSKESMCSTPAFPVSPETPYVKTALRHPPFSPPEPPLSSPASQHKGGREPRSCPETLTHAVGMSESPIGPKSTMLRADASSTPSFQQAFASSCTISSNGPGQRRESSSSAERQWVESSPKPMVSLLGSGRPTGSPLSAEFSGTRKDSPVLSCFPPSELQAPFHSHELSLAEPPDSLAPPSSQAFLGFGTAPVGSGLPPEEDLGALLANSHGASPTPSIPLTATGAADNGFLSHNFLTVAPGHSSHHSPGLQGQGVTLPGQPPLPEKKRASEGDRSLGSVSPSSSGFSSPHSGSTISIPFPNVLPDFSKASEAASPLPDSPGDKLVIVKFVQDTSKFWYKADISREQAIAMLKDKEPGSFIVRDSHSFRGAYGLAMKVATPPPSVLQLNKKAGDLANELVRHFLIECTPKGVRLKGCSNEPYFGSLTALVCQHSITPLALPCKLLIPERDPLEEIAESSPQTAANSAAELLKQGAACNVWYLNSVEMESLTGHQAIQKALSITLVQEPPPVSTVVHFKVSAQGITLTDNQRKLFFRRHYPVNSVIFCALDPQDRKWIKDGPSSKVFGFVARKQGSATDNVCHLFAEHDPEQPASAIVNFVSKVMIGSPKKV
UniProt Q96HA7: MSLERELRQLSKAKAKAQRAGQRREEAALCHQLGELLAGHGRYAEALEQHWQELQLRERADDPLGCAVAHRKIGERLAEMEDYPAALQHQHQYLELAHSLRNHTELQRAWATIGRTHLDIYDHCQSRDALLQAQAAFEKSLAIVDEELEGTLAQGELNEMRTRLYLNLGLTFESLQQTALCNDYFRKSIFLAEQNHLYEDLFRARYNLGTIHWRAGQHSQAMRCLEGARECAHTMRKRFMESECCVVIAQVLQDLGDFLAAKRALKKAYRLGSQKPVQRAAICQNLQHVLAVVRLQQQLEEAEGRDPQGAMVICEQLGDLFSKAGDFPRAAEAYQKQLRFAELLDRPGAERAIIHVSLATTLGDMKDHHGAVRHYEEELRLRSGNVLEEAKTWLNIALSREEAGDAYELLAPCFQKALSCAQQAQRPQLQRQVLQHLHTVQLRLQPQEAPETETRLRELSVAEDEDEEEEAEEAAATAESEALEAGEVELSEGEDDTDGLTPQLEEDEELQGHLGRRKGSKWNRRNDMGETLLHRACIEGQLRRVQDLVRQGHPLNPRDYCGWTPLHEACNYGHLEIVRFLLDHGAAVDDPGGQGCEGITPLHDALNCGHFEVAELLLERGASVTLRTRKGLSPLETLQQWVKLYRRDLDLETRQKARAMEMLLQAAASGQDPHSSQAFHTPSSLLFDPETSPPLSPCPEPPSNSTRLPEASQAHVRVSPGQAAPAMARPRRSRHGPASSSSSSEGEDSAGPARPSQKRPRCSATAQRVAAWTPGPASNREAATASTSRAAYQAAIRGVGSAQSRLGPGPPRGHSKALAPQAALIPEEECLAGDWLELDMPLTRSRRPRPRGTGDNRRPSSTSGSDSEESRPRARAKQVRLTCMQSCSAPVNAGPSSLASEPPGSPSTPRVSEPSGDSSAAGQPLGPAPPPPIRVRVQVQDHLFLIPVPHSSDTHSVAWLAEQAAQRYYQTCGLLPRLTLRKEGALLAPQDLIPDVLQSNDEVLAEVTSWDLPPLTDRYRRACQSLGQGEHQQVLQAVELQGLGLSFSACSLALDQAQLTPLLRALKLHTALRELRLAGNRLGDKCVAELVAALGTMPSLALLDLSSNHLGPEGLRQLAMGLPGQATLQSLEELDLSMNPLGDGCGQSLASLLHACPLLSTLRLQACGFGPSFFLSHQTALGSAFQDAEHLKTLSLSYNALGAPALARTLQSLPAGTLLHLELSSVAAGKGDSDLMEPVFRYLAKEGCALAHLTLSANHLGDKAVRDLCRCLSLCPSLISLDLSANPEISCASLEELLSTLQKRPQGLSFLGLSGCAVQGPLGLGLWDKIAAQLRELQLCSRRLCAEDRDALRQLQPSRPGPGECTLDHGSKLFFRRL
UniProt Q92973: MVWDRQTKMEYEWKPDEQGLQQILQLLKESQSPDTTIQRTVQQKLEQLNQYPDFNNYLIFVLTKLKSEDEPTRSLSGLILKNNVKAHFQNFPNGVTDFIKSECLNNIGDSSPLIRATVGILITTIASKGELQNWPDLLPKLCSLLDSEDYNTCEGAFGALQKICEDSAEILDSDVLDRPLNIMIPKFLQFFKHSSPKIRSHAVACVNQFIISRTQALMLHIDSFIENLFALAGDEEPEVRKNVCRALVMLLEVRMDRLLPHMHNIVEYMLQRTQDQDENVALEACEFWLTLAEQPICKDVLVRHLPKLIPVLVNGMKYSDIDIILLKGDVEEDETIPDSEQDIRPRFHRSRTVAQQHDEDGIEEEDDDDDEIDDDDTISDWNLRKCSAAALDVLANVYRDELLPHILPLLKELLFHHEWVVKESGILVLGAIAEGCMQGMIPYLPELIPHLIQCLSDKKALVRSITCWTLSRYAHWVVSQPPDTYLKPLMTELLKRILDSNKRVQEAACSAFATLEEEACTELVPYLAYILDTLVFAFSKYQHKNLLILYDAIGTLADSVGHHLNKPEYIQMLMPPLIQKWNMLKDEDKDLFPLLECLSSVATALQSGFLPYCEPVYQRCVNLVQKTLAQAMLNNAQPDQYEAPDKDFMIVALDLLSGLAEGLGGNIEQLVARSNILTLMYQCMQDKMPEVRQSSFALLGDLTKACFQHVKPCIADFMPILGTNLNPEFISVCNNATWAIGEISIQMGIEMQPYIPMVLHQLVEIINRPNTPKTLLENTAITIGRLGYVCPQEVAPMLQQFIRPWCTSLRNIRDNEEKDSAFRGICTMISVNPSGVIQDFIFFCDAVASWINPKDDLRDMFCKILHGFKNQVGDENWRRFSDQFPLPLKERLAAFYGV
UniProt Q9Y3A6: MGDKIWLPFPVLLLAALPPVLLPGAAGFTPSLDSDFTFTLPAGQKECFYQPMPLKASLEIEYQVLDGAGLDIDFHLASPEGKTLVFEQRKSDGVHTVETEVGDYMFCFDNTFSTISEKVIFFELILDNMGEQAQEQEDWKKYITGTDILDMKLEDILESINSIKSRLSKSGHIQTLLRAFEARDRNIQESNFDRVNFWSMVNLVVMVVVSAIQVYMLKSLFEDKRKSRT
UniProt Q8NFZ5: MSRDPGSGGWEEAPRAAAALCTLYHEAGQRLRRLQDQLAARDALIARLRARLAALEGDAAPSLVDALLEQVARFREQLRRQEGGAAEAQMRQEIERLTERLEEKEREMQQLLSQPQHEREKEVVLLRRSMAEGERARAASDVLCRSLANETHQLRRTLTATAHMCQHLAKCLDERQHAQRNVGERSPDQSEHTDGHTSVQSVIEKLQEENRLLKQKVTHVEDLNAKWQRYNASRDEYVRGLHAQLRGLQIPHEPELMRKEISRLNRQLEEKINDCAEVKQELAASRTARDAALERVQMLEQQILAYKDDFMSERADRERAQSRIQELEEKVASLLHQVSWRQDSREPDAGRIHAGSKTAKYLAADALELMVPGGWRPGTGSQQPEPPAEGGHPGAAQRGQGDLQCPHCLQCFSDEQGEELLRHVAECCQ
UniProt P82094: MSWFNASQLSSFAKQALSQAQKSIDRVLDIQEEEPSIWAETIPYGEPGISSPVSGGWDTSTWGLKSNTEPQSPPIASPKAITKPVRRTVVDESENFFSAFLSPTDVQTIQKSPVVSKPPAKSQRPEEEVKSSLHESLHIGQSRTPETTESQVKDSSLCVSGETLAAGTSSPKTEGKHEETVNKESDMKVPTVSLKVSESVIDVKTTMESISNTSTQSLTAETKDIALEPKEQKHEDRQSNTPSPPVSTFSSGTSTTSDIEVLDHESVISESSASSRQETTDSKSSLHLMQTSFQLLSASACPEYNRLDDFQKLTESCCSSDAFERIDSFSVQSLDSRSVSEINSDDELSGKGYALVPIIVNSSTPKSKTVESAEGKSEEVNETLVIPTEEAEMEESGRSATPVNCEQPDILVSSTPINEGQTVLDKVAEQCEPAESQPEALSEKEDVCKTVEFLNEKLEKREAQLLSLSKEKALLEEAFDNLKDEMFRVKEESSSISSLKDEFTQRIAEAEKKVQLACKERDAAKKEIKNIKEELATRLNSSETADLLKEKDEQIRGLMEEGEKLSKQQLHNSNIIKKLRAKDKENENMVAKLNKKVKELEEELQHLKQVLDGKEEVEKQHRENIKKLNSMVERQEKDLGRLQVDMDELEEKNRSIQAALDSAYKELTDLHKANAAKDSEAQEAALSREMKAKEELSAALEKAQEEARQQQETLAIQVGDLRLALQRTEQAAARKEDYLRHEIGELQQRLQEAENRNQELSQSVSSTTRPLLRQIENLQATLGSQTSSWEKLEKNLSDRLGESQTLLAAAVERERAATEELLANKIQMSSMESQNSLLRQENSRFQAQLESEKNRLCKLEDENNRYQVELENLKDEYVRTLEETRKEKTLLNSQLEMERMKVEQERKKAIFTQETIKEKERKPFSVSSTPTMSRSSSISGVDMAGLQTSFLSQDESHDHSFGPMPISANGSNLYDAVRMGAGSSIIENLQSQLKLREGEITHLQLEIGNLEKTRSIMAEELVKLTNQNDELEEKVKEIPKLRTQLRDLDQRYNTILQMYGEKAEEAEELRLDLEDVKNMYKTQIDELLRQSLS
UniProt P06753, whole entry, looked up: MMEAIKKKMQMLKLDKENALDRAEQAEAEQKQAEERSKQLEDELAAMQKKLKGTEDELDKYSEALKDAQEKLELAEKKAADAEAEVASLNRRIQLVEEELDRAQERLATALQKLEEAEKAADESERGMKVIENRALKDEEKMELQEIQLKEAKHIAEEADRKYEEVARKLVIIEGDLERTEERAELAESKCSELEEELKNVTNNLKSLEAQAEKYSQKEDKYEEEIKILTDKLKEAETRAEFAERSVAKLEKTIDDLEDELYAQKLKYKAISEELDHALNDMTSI

Compound: Cc1cc(ccc1-c1ccccc1)C(=O)N1CCCN(CC1)C(=O)CCl [compound 10]
Experiment: probe-labelled cysteine peptide fold change vs DMSO (competition) (log2 fold change); higher = less target engagement (more negative = stronger competition)
Details: THP-1, incubation time: 4 h
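Note: competitive profiling in live THP-1 cells: cysteine peptides tagged with an iodoacetamide desthiobiotin (IA-DTB) probe, intensity after compound treatment relative to DMSO-treated cells.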

| Target | probe-labelled cysteine peptide fold change (10 µM) | probe-labelled cysteine peptide fold change (50 µM) |
| --- | --- | --- |
| TNS3_Q68CZ2_1381_RHYPVNSVIFCALDPQDRK (UniProt Q68CZ2) | 0.144 | 0.249 |
| TONSL_Q96HA7_30_EEAALCHQLGELLAGHGR (UniProt Q96HA7) | 0.128 | -0.362 |
| TP53BP1_Q12888_1950_CAEALQLPVVSQEWVIQCLIVGER (UniProt Q12888) | -0.00348 | -0.462 |
| TONSL_Q96HA7_231_ECAHTMR (UniProt Q96HA7) | -0.316 | -1.42 |
| TNPO1_Q92973_142_LCSLLDSEDYNTCEGAFGALQK (UniProt Q92973) | 0.128 | 0.0503 |
| TMED5_Q9Y3A6_47_ECFYQPMPLK (UniProt Q9Y3A6) | -0.362 | -0.0487 |
| TNIP2_Q8NFZ5_428_HVAECCQ (UniProt Q8NFZ5) | 0.116 | 0.276 |
| TMF1_P82094_301_SSLHLMQTSFQLLSASACPEYNR (UniProt P82094) | -0.211 | -0.691 |
| TPM3_P06753-2_170_CLSAAEEK (UniProt P06753) | -0.0157 | -0.233 |
